Test results from PubChem BioAssay AID2685 (National Center for Advancing Translational Sciences (NCATS), 2010).
Some of the results follow. Shown are side measurements of this screen, not its main read-out; they come without a call. Most of these compounds were active or inconclusive in the main read-out, so they are no random draw. Potencies come from curve fits of mixed quality, noted in brackets.

Test: qHTS Assay for Lipid Storage Modulators in Drosophila S3 Cells;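 as to cell number change: cells counted by Cell Tracker Red CMTPX staining in the red channel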
Conditions: BODIPY lipid droplet fluorescence, 18-24 h; for cell number change: measured here: cell count max response, cells fed with added oleic acid
Outline: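 Drosophila S3 cells loaded with oleic acid (400 uM, as added) and compounds at several concentrations; lipid droplets imaged by 488-nm laser-scanning cytometry, 500–530 nm intensity and object ratio to cell channel. Percent activity normalized to 20 uM Triacsin C.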

[1] = measured here: lipid fluorescence (Fed channel) AC50, cells fed with added oleic acid
[2] = measured here: cell number channel AC50, cells fed with added oleic acid

SMILES | cell number change [%] | AC50 [1] | AC50 [2]
COc1cc(NC(=O)CCS(=O)(=O)c2ccc3c(c2)oc(=O)n3C)cc(OC)c1OC | 1.18 | 29.1 µM [falling, single point] | –
CC(C)c1ccc(/C=N/NC(=O)CN(c2cccc(Cl)c2Cl)S(C)(=O)=O)cc1 | -72.7 | 29.1 µM [falling, single point] | 20.6 µM [falling, partial curve, poor fit]
COc1cc(CCC(=O)Nc2ccc(S(=O)(=O)N3CCOCC3)cc2)cc(OC)c1OC | -7.1 | 29.1 µM [falling, single point] | –
CCCc1cc(=O)[nH]c(SCC(=O)c2cc(C)n(CC(F)(F)F)c2C)n1 | 61.4 | – | 29.1 µM [rising, single point]
COCCn1c(-c2ccc(OC)cc2)cnc1SCC(=O)Nc1cccc2ccccc12 | – | 0.13 µM [rising, full curve, poor fit] | –
Cc1cccc(NC(=O)NCC2CCN(c3ccc(S(=O)(=O)N4CCOCC4)cc3)CC2)c1 | 22.1 | 18.4 µM [falling, partial curve, poor fit] | –
O=[N+]([O-])c1ccc(-c2nnc(S)n2-c2ccccc2)cc1 | 1.76 | 0.92 µM [rising, full curve, poor fit] | –
COc1cccc(-n2nc(C(=O)Nc3ccc4c(c3)OCO4)c3ccccc3c2=O)c1 | 178 | 0.291 µM [rising, full curve] | 0.291 µM [rising, full curve]
CC(=O)Nc1ccc(SCC(=O)NCCc2ccc(F)cc2)cc1 | 3.42 | – | –
COc1ccc(C(=O)NNC(=O)CCC(=O)NNC(=O)c2ccc(OC)cc2)cc1 | 6.94 | 0.103 µM [falling, full curve, poor fit] | –
O=C(N/N=C/c1ccncc1)c1cccc(NC(=O)c2ccccc2Cl)c1 | 10.6 | 3.66 µM [rising, full curve, poor fit] | –
Cc1cc(NC(=O)C2CC=CCC2C(=O)O)no1 (stereo unspecified) | -4.11 | 6.51 µM [falling, single point] | –
COc1ccc(CNC(=O)Nc2ccc(OC)cc2)cc1 | 4.52 | 0.184 µM [falling, full curve, poor fit] | –
CCC(=O)N/N=C(\C)CC(=O)Nc1cc(Cl)ccc1C | 5.72 | – | 0.103 µM [rising, partial curve, poor fit]
O=C1CC(SC(=NCc2ccc3c(c2)OCO3)Nc2ccccc2)C(=O)N1 (stereo unspecified) | 11.9 | 0.461 µM [rising, partial curve, poor fit] | –
CCOC(=O)c1c(CN2CCCCC2)oc2ccc(OC)cc12 | -20 | 3.26 µM [falling, single point] | –
Cc1cccc(NC(=O)CC2C(=O)NCCN2C(=O)Nc2ccc(Cl)cc2)c1 (stereo unspecified) | -13.3 | 23.1 µM [falling, single point] | –
COc1ccc(Cl)cc1NC(=O)CN(C)C(=O)c1cccc(-n2cnnn2)c1 | 13.6 | 23.1 µM [rising, single point] | –
CCCCC(O)(c1ccc(OC)cc1)C(CN1CCOCC1)c1ccccc1 (stereo unspecified) | -35.8 | – | 25.9 µM [falling, single point]
NC(=O)NC(=O)COC(=O)c1sc2ccccc2c1Cl | 7.64 | 0.146 µM [falling, full curve, poor fit] | –

SMILES | cell number change [%] | AC50 [1] | AC50 [2]
N#CC(c1ccc(Cl)cc1)N1CCOCC1 (stereo unspecified) | 4.23 | 2.59 µM [rising, partial curve] | –
COc1ccc(NC(=O)c2cccc(S(=O)(=O)Nc3ccc(Br)cc3)c2)cn1 | -9.85 | 16.4 µM [falling, single point] | –
CC(=O)c1cc2c(cc1N/C(=N/S(=O)(=O)c1ccccc1)c1ccc(Cl)cc1)OCO2 | 1.21 | 18.4 µM [rising, single point] | –
CN1/C(=C/C2CC(=O)N(c3ccc([N+](=O)[O-])cc3)C2=O)C(C)(C)c2ccccc21 (stereo unspecified) | 6.84 | 16.4 µM [rising, single point] | –
Cc1nc(N)c(C#N)c(-c2cccnc2)c1C | – | – | 6.51 µM [falling, single point]
Cc1ccc(S(=O)(=O)NC(=O)c2ccc(-c3ccc(C)c4ccccc34)o2)cc1 | 14.1 | 11.6 µM [rising, single point] | –
C=CCn1c(COc2ccc(CC)cc2)nnc1SC/C(O)=C(\C#N)c1nc2ccccc2[nH]1 | – | 0.58 µM [rising, single point] | 1.84 µM [rising, partial curve]
COc1ccc(/C=C(\NC(=O)c2ccc(OC)cc2)C(=O)Nc2ccccc2C(=O)O)cc1 | 25.4 | 29.1 µM [rising, single point] | –
O=C(NCCc1c[nH]c2ccccc12)OCCCCOC(=O)NCCc1c[nH]c2ccccc12 | 3.63 | 11.6 µM [falling, partial curve, poor fit] | –
COc1ccccc1Nc1nc(N)nc(CSc2nnc(C)s2)n1 | -14.3 | 18.4 µM [rising, partial curve] | –
Cc1cc(C)nc(N(C#N)C(C)C(=O)N(C)C)n1 (stereo unspecified) | 27.5 | 0.00461 µM [rising, full curve, poor fit] | –
N=c1c(C(=O)NC2CCCCC2)cc2c(=O)n3ccccc3nc2n1Cc1cccnc1 | -1.9 | – | –
CCOc1ccccc1NC(=O)COC(=O)C1CC(=O)N(c2c(C)cccc2C)C1 (stereo unspecified) | -6.35 | 0.82 µM [falling, full curve, poor fit] | –
CCOC(=O)c1ccc(S(=O)(=O)N2CCN(CC(=O)NC(=O)NC3CCCCC3)CC2)cc1 | 1.41 | 1.46 µM [falling, partial curve] | –
Cc1nc(CN2CCN(C(=O)c3ccc(Br)cc3)CC2)cs1 | 7.84 | – | –
O=C(CSc1cccc2cccnc12)N/N=C/c1cccnc1 | – | – | 0.291 µM [rising, partial curve, poor fit]
CC(C)(C)NC(=O)CSc1nnc(C2CC2)n1-c1ccccc1 | 23.2 | – | –
O=C(Nc1ccon1)c1ccc(S(=O)(=O)N2CCOCC2)cc1 | -19.1 | 2.59 µM [falling, full curve, poor fit] | –
Cc1ccc(C2N(C)c3ccccc3-c3nc4ccccc4n32)o1 (stereo unspecified) | 21.4 | 0.58 µM [rising, single point] | –
CC(C)(C)NC(=O)C1CN(S(=O)(=O)c2ccccc2)CCN1S(=O)(=O)c1ccccc1 (stereo unspecified) | -10.8 | – | 0.731 µM [falling, full curve, poor fit]

SMILES | cell number change [%] | AC50 [1] | AC50 [2]
CC(=O)Nc1ccc(S(=O)(=O)N2CCC(NC(=O)C(Cc3ccc(C)cc3)NC(C)=O)CC2)cc1 (stereo unspecified) | 8.47 | 0.103 µM [rising, full curve, poor fit] | –
O=C(C1CCCO1)N1CCN(C(=S)Nc2ccc(Cl)c(Cl)c2)CC1 (stereo unspecified) | -22.4 | 29.1 µM [rising, single point] | –
CCn1c(CSc2nnc3ccccn23)nc2cc(C(=O)O)ccc21 | 14.4 | – | –
O=C(CN1CCSCC1)c1c[nH]c2ccccc12 | – | 0.651 µM [falling, single point] | 6.51 µM [falling, single point]
Cc1cc(C)cc(N(C(=O)CCC(=O)Nc2ccccn2)C(C(=O)NC(C)C)c2ccc(O)cc2)c1 (stereo unspecified) | 32.4 | – | 20.6 µM [rising, single point]
CCN1CCN(S(=O)(=O)c2ccc(Cl)c(C(=O)NC3CCCC3)c2)CC1 | 22.5 | – | –
CCCn1c(=O)c(C(=O)Nc2nnc(CC)s2)c(O)c2ccccc21 | -1.36 | 0.0058 µM [falling, full curve, poor fit] | –
CC(C)C(c1nnnn1CCc1ccccc1)N1CCN(C(=O)c2ccco2)CC1 (stereo unspecified) | 0.295 | – | –
COc1cccc(CNC(=O)C2CCN(S(=O)(=O)c3ccc(C)cc3)CC2)c1 | 38.5 | – | 8.2 µM [rising, single point]
CCC(=O)Nc1cccc(C2=NN(c3ccccc3)C(c3ccc(OC)cc3)C2)c1 (stereo unspecified) | 64.9 | 29.1 µM [rising, single point] | 29.1 µM [rising, single point]
CCOc1ccc(NC(=O)CC2C(=O)N(c3ccccc3)C(=O)N2Cc2ccco2)cc1 (stereo unspecified) | 24 | 1.16 µM [rising, partial curve, poor fit] | 1.16 µM [rising, single point]
CCc1c(C)nc2nc(SCc3ccccc3)[nH]n2c1=O | – | – | 0.103 µM [rising, full curve, poor fit]
CCN(CC)S(=O)(=O)N1CCC(C(=O)NCCC2=CCCCC2)CC1 | 28.2 | – | 0.00184 µM [rising, full curve, poor fit]
C=CCN1C(=O)S/C(=C\c2ccc(N3CCOCC3)cc2C)C1=O | 7.05 | 6.51 µM [rising, single point] | –
COc1ccc(OC)c(NC(=O)c2nnn(CC(=O)Nc3ccc4c(c3)OCO4)c2N)c1 | -8.57 | 3.66 µM [rising, single point] | –
CCCCC(=O)NC(c1ccco1)c1c(O)ccc2ccccc12 (stereo unspecified) | 18.3 | – | 4.61 µM [rising, single point]
Cc1ccc(C(=O)CN(CCCC(N)=O)C(=O)c2ccncc2)cc1 | -32.8 | 18.4 µM [falling, single point] | 32.6 µM [falling, single point]
COc1ccccc1Oc1ccc(S(=O)(=O)N2CCCC2)cc1 | 0.674 | – | –
Cn1cc(CN2CCC(n3nccc3NC(=O)c3ccccc3Cl)CC2)cn1 | 0.99 | 6.51 µM [falling, single point] | –

Only AC50 [2] and AC50 [1] (5 entries from above):
SMILES | AC50 [2] | AC50 [1]
COc1ccc(C(=O)NNC(=O)CCC(=O)NNC(=O)c2ccc(OC)cc2)cc1 | – | 0.103 µM [falling, full curve, poor fit]
Cc1cccc(NC(=O)CC2C(=O)NCCN2C(=O)Nc2ccc(Cl)cc2)c1 (stereo unspecified) | – | 23.1 µM [falling, single point]
NC(=O)NC(=O)COC(=O)c1sc2ccccc2c1Cl | – | 0.146 µM [falling, full curve, poor fit]
Cc1ccc(S(=O)(=O)NC(=O)c2ccc(-c3ccc(C)c4ccccc34)o2)cc1 | – | 11.6 µM [rising, single point]
C=CCN1C(=O)S/C(=C\c2ccc(N3CCOCC3)cc2C)C1=O | – | 6.51 µM [rising, single point]
